pIC50: −log10 of the molar value.

Our source for the IC50 values is patent publication US10457662B2, “Substituted amides for treating and preventing cancer” (The Regents of the University of Michigan, priority 2015, dated 2019).

The assay deals with MiaPaCa-2. Nature of the assay: MTT assay, MiaPaCa-2. As to conditions: Homo sapiens, MIA PaCa-2, read-out: IC50 in MiaPaCa-2. How it is done: Cells were treated with QN523 for 1, 4, 8, 24, 48, 72 h and left in culture in fresh media. MTT assay was performed 72 h after initiation of treatment. Data points represent Mean±SD from three independent experiments.
Experiments conducted during the course of developing embodiments for the present invention involved performance of a phenotypic screen of a library of 20,000 small-molecules representing five million compounds. […] Subsequently, a lead optimization campaign was performed to synthesize a series of close analogs. Initially, the 50 analogs were tested in three pancreatic cancer cell lines using MTT assay (Table 1).
For in vitro studies, compounds were dissolved in DMSO at 10 mM as stock solutions and stored at −20° C. For in vivo studies, QN523 was dissolved in a vehicle containing 5% DMSO, 35% propylene glycol and 60% saline, and administered at 100 uL through intraperitoneal injections.

`CN1CCN(CCCN2c3ccccc3Sc3ccc(Cl)cc32)CC1` [prochlorperazine]: the pIC50 is 4.77.
With `CSc1ccc2c(c1)N(CCC1CCCCN1C)c1ccccc1S2` (centres unmarked) [thioridazine, reference compound] the figure was 4.92.
